Some of the results follow.

This experiment deals with T1, OsSMF1 (Oryza sativa, UniProt Q6ZLB0 1-436).
T1 sequence: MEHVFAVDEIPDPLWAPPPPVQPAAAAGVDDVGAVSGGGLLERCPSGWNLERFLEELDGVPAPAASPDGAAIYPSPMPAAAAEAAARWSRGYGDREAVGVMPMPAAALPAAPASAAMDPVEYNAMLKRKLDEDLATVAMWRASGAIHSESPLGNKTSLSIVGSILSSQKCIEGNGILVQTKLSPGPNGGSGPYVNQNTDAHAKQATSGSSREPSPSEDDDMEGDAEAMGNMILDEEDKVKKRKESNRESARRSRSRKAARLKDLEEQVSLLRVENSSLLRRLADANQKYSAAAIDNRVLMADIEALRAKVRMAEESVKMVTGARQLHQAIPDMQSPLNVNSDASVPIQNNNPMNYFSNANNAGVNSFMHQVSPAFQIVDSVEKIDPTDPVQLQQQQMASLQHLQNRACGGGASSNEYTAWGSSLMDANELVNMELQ
Put plainly: protein-binding microarray (RPBM); PBS, 2% BSA, 51.3 ng/ul salmon testes DNA, 50 uM zinc acetate, 200 nM TF, 25 C, 1 h; high values mean tight binding. Particulars: protein: recombinant; tags: N-terminal polyhistidine and DsRed monomer fusion (pET32a); chain copies: 2; label: CyDye5-dUTP incorporated in the synthesized complementary strand; 3' TTTTT single-stranded linker to array surface; dsDNA, one strand shown. In a few lines: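 Transcription factors were each fused at the N-terminus to a polyhistidine tag plus DsRed and expressed in E. coli BL21-CodonPlus before Ni–NTA purification. Binding to a double-stranded custom Agilent array was carried out with 200 nM protein at 25 °C for 1 h in PBS, 2% BSA, salmon testes DNA and 50 µM zinc acetate. The binding signal is per-feature fluorescence intensity, in arbitrary units, on an Axon 4000B scanner.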
As for “TGGAATCGAAATGGGGATCGATTAACTCGCTAGCGGCTAGCGGAGTCACCTAGTGCAG”, the binding signal is 30700 fluorescence intensity (a.u.). In the case of “TCCGTCCTCGTCACCGCCGCCACCGCCGCCCCACCGCCAGCGGAGTCACCTAGTGCAG”, the binding signal was 8360 fluorescence intensity (a.u.). In the case of “CTCTCCCGCCTCGCCCGTCGACGCCCGCGCCACGTGCAGCCGGAGTCACCTAGTGCAG”, the binding signal is 6190 fluorescence intensity (a.u.). “TGCCGTGTGTGTCCAGCTCGCGCGTTGGCCTCTCGCTGTCCGGAGTCACCTAGTGCAG”: the binding signal was 3650 fluorescence intensity (a.u.). For the sequence “GTAGCAGAGCGGCGACGGGAACTCTAGCCTCCCAAGCAGCCGGAGTCACCTAGTGCAG”, the binding signal is 3530 fluorescence intensity (a.u.). Consider “CATCAATTTCAAACCTCGAGTCATGGTTTTGCAAAGAAATCGGAGTCACCTAGTGCAG”, for which the binding signal is 3230 fluorescence intensity (a.u.). On to “GTAACGTACCCATCAACAATGTTGATCCATGATGACTTCACGGAGTCACCTAGTGCAG”, for which the binding signal was 3180 fluorescence intensity (a.u.). In the case of “ATAAAAGAATCCTCCTGAATACCACGTGGCAATGAAATCACGGAGTCACCTAGTGCAG”, the binding signal was 8250 fluorescence intensity (a.u.).

As for “GCGTGCGCACACGTGCCACCGCCACCGGCGTCCAGCCGGACGGAGTCACCTAGTGCAG”, the binding signal was 3400 fluorescence intensity (a.u.). As for “TTTAGGCAAGCTATGAAGATTTTGTGAGTTAGTGAGTGTGCGGAGTCACCTAGTGCAG”, the binding signal was 32300 fluorescence intensity (a.u.).

For “GCTTATCGATAAACTCAGTGTATTTGCATTCAAATTTTGACGGAGTCACCTAGTGCAG”, the binding signal was 3660 fluorescence intensity (a.u.). The figure for “TCCATGTTCCGATCCCTCCACCTCACGCAGCTCATGCATTCGGAGTCACCTAGTGCAG” is 5740 fluorescence intensity (a.u.). Take “AATTCATACAATAGTTGCTTACTATATTATTAATACCTTGCGGAGTCACCTAGTGCAG”: the binding signal was 3710 fluorescence intensity (a.u.). The result for “TGCGGTATCCTTGTTATCGTCATCACTCCATCACCCTTATCGGAGTCACCTAGTGCAG” reads 6150 fluorescence intensity (a.u.); that for “CTGCGTGAACAGAGATGATCCGTCTCATCCTGTCATCCACCGGAGTCACCTAGTGCAG”, 4660 fluorescence intensity (a.u.); that for “ATCATGACATAATTAGACTCAAAAGATTCGTCTTGTGAATCGGAGTCACCTAGTGCAG”, 3800 fluorescence intensity (a.u.).

In the case of “GGTAGTCGGCGGAGGTGGCGAGGTCGAGGGAGGGGAAGATCGGAGTCACCTAGTGCAG”, the binding signal is 3570 fluorescence intensity (a.u.). The figure for “TACATCTCGACACACCTACGTGGATGGATATACTCGCTCTCGGAGTCACCTAGTGCAG” is 3200 fluorescence intensity (a.u.); for “ATAGTTAAATTTTCACTTTTGAGTCATCTTTCAACTAATCCGGAGTCACCTAGTGCAG” it is 4800 fluorescence intensity (a.u.). On to “GAACTGGTACACCACTGTAGTCAAATAAATGTGGGCCTATCGGAGTCACCTAGTGCAG”, for which the binding signal was 32400 fluorescence intensity (a.u.). As to “AATTACTCAAGTGTGTGTGCTGAATTGCAAACATCCTCTACGGAGTCACCTAGTGCAG”, the binding signal is 30200 fluorescence intensity (a.u.). Take “CCGTGCTCGCCGCCGTCAACTTGGGCTACTTCCTTTTGTGCGGAGTCACCTAGTGCAG”: the binding signal is 3720 fluorescence intensity (a.u.).

As for “GGCAACAATCGAGGCATGGGTGGCATACTGGCATAGCTCCCGGAGTCACCTAGTGCAG”, the binding signal was 3270 fluorescence intensity (a.u.). As for “TGCTGATCCGTCGCATGTCACGCCGCCACCAAGACCCACCCGGAGTCACCTAGTGCAG”, the binding signal is 4490 fluorescence intensity (a.u.). The figure for “AATTCAATTTAAAATATTTTAAGCTAATACTTAATTAATCCGGAGTCACCTAGTGCAG” is 21900 fluorescence intensity (a.u.); for “TTCAGGTCAGGTGAGAGCACTTCCTCCCTGTCATTATCCGCGGAGTCACCTAGTGCAG” it is 3830 fluorescence intensity (a.u.). The result for “AAATAAACCTATAGCAAGCAATATACACATCATTGTCTTACGGAGTCACCTAGTGCAG” reads 4710 fluorescence intensity (a.u.). On to “AAACTCACATTTGATTGCAATTTGCTGCAACGTGTACAGTCGGAGTCACCTAGTGCAG”, for which the binding signal is 4260 fluorescence intensity (a.u.). The result for “CATCGCTCCATCTCATTTTCATTGTTCATCTGTTTGCATTCGGAGTCACCTAGTGCAG” reads 21700 fluorescence intensity (a.u.).

With “TTATAGAGCATATGGTAATTGTGCATCATATGATATTAGGCGGAGTCACCTAGTGCAG”, the binding signal is 15600 fluorescence intensity (a.u.).

As to “ATGTTCTACTAGTACACACTATCGTGTTGCAAATGCTTGGCGGAGTCACCTAGTGCAG”, the binding signal is 32700 fluorescence intensity (a.u.). As to “TCTGTTCGAACCCTTGTTGACGCTGTAGGTTTCCCATTCCCGGAGTCACCTAGTGCAG”, the binding signal was 3990 fluorescence intensity (a.u.). Take “GAGAGGAGAGGGAGAGAAGGGAGGCGCGTGATTCGATCGACGGAGTCACCTAGTGCAG”: the binding signal is 4850 fluorescence intensity (a.u.). As for “CACGTCGTACCCACTCGTCCTCGGCTCCTCGCGCGGTCACCGGAGTCACCTAGTGCAG”, the binding signal is 3400 fluorescence intensity (a.u.). As for “GGGTTAAACAACGGAAAGAAAAGGCTGACGCGTGGGTCCCCGGAGTCACCTAGTGCAG”, the binding signal is 3910 fluorescence intensity (a.u.).

Turning to “AGTCACACTCCGGCCCGCACTTACGTCATAATCCCGTTCCCGGAGTCACCTAGTGCAG”, the binding signal is 9050 fluorescence intensity (a.u.). For the sequence “TTTGTTTTCTACTTAATTGACCATACTCCAGTCCTACTCCCGGAGTCACCTAGTGCAG”, the binding signal was 38000 fluorescence intensity (a.u.). “CATCTAATTTAAATTTAAATGTTTTAAAAGATAGAGACGTCGGAGTCACCTAGTGCAG”: the binding signal is 24500 fluorescence intensity (a.u.). Turning to “CACCTCGTCGCCGGGCTCCCACTGCGGCCTCGTCGCCGGCCGGAGTCACCTAGTGCAG”, the binding signal was 24500 fluorescence intensity (a.u.). Regarding “TGGGAGTAATGCGATACCACATCACCATTTACTCCTATTGCGGAGTCACCTAGTGCAG”, the binding signal is 3210 fluorescence intensity (a.u.). For the sequence “TCCTTGCTCCATCAGTATTACACCACCCAACACAAGCTCACGGAGTCACCTAGTGCAG”, the binding signal is 30400 fluorescence intensity (a.u.).

For the sequence “GCACCCACTTAGCGAGCTTCACGCGCACGTACGCATGGCACGGAGTCACCTAGTGCAG”, the binding signal is 3400 fluorescence intensity (a.u.).

The values above are taken from PMC7819943, “Rice protein-binding microarrays: a tool to detect cis-acting elements near promoter regions in rice”.
